This experiment deals with T1, OsGEN1-BD (rice) (UniProt Q64MA3).
T1 sequence: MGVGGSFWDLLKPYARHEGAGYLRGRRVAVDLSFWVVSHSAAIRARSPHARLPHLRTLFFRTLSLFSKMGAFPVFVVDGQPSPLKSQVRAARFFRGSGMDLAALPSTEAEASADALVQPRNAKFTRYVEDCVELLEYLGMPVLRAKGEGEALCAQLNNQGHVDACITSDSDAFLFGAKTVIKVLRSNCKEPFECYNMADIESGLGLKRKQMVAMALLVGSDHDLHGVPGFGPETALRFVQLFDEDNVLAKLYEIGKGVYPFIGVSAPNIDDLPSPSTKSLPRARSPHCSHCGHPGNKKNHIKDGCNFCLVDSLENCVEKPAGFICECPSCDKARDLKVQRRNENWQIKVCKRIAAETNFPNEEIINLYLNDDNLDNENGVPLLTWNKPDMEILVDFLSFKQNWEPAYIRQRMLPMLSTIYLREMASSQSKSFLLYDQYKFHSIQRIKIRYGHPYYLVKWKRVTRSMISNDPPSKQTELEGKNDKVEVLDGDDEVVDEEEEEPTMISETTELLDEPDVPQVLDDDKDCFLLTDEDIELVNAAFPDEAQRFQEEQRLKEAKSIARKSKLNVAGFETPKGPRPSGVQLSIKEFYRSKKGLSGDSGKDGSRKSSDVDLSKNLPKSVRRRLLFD
Kind of experiment: two-hybrid; GAL4-based, yeast strain AH109; OsPCNA-AD with truncated or mutated CHR721-BD or OsGEN1-BD; growth on SD-Ade/-Leu/-Trp/-His (Fig. 3, Fig. S2; medium of Fig. 4 not told).

The chains behind the UniProt entries cited, without tags or fusion partners.
UniProt P17070: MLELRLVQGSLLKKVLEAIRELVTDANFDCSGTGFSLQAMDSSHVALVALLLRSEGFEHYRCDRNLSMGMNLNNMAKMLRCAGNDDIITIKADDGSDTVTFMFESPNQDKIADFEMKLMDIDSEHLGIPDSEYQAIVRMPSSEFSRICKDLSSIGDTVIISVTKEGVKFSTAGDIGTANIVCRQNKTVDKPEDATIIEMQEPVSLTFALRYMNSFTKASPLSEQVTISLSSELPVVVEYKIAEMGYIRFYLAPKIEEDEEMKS

These are yes or no findings as the source states them, for the method shown. Some results given as binding are weak or reduced against the parent protein; the word gives no strength. Sequences can lack the tags named with a protein.

Consider OsPCNA-AD (from UniProt P17070 1-263), for which the binding result is on record as “binds”.

Source of the values: article PMC8974069.
